No constants are given. Whether binding was seen depends on the method and setting. Binding seen in cells or lysates may run through a third protein. A yes stands for co-enrichment or nearness to the bait. Other partners may have been found.

Protein sequences, listed by entry. Tags and fused reporters are not part of them.
UniProt Q9SQI2: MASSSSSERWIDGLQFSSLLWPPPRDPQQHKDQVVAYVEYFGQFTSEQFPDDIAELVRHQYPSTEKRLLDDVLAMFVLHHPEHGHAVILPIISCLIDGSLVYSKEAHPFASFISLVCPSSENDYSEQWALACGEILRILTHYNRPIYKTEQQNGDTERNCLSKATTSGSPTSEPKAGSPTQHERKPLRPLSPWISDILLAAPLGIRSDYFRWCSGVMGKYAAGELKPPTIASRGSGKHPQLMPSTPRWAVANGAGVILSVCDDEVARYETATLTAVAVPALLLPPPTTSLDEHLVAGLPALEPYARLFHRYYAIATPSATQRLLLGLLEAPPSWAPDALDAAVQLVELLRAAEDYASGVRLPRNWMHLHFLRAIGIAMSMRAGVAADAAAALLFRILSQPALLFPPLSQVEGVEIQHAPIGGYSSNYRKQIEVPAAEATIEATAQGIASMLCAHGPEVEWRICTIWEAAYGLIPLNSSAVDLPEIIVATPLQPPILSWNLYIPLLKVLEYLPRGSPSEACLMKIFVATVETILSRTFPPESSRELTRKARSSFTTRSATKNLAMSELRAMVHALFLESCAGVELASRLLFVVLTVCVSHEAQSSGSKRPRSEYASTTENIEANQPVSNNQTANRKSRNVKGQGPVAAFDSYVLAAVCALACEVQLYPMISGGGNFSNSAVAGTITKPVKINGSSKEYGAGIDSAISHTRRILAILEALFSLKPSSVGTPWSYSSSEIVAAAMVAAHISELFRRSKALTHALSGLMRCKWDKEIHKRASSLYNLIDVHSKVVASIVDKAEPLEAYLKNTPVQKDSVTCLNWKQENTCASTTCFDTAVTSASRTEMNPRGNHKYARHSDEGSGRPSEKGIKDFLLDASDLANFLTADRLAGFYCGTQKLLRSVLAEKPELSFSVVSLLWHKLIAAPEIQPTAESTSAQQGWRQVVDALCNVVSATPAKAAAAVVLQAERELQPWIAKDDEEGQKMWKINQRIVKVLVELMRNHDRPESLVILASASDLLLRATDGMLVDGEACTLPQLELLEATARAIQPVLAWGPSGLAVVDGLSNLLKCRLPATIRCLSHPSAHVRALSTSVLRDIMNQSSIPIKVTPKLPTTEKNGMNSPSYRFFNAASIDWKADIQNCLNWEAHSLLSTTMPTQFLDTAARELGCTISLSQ

The assay addresses GIGANTEA with C-terminal 3xFLAG-6xHis tag (GI‐3F6H) (Arabidopsis thaliana) (UniProt Q9SQI2). The experiment in a line: affinity purification with mass spectrometry; time series study: tandem affinity purification (FLAG and His tags) of GI-3F6H from rosettes grown in short days, six time points plus ZT31; on-bead digest, label-free quantitation; WT plants as control.

B1: TREHALOSE‐6‐PHOSPHATASE SYNTHASE 8 (TPS8) (protein, UniProt Q0WUI9 1-856)
chain: MVSRSCANFLDLSSWDLLDFPQTPRTLPRVMTVPGIITDVDGDTTSEVTSTSGGSRERKIIVANMLPLQSKRDAETGKWCFNWDEDSLQLQLRDGFSSETEFLYVGSLNVDIETNEQEEVSQKLLEEFNCVATFLSQELQEMFYLGFCKHQLWPLFHYMLPMFPDHGDRFDRRLWQAYVSANKIFSDRVMEVINPEDDYVWIQDYHLMVLPTFLRKRFNRIKLGFFLHSPFPSSEIYRTLPVRDEILRGLLNCDLIGFHTFDYARHFLSCCSRMLGLDYESKRGHIGLDYFGRTVYIKILPVGVHMGRLESVLSLDSTAAKTKEIQEQFKGKKLVLGIDDMDIFKGISLKLIAMEHLFETYWHLKGKVVLVQIVNPARSSGKDVEEAKRETYETARRINERYGTSDYKPIVLIDRLVPRSEKTAYYAAADCCLVNAVRDGMNLVPYKYIVCRQGTRSNKAVVDSSPRTSTLVVSEFIGCSPSLSGAIRVNPWDVDAVAEAVNSALKMSETEKQLRHEKHYHYISTHDVGYWAKSFMQDLERACRDHYSKRCWGIGFGLGFRVLSLSPSFRKLSVEHIVPVYRKTQRRAIFLDYDGTLVPESSIVQDPSNEVVSVLKALCEDPNNTVFIVSGRGRESLSNWLSPCENLGIAAEHGYFIRWKSKDEWETCYSPTDTEWRSMVEPVMRSYMEATDGTSIEFKESALVWHHQDADPDFGSCQAKEMLDHLESVLANEPVVVKRGQHIVEVKPQGVSKGLAAEKVIREMVERGEPPEMVMCIGDDRSDEDMFESILSTVTNPELLVQPEVFACTVGRKPSKAKYFLDDEADVLKLLRGLGDSSSSLKPSSSHTQVAFESIV
Consider B1, for which the binding result is listed as “binds”.

B2: CYCLING DOF FACTOR 6 (CDF6) (protein, UniProt Q9LQX4 1-366)
chain: MSQVRDTPVKLFGWTITPVSHDPYSSSSHVLPDSSSSSSSSSLSLRPHMMNNQSVTDNTSLKLSSNLNNESKETSENSDDQHSEITTITSEEEKTTELKKPDKILPCPRCNSADTKFCYYNNYNVNQPRHFCRKCQRYWTAGGSMRIVPVGSGRRKNKGWVSSDQYLHITSEDTDNYNSSSTKILSFESSDSLVTERPKHQSNEVKINAEPVSQEPNNFQGLLPPQASPVSPPWPYQYPPNPSFYHMPVYWGCAIPVWSTLDTSTCLGKRTRDETSHETVKESKNAFERTSLLLESQSIKNETSMATNNHVWYPVPMTREKTQEFSFFSNGAETKSSNNRFVPETYLNLQANPAAMARSMNFRESI
With B2, the binding result is “binds”.

B3: glycyl‐tRNA synthetase (AT1G29880) (protein, UniProt O23627 29-729)
chain: NPISIAPIQIPMDATEQSLRQSLSEKSSSVEAQGNAVRALKASRAAKPEIDAAIEQLNKLKLEKSTVEKELQSIISSSGNGSLNREAFRKAVVNTLERRLFYIPSFKIYSGVAGLFDYGPPGCAIKSNVLSFWRQHFILEENMLEVDCPCVTPEVVLKASGHVDKFTDLMVKDEKTGTCYRADHLLKDYCTEKLEKDLTISAEKAAELKDVLAVMEDFSPEQLGAKIREYGITAPDTKNPLSDPYPFNLMFQTSIGPSGLIPGYMRPETAQGIFVNFKDLYYYNGKKLPFAAAQIGQAFRNEISPRQGLLRVREFTLAEIEHFVDPENKSHPKFSDVAKLEFLMFPREEQMSGQSAKKLCLGEAVAKGTVNNETLGYFIGRVYLFLTRLGIDKERLRFRQHLANEMAHYAADCWDAEIESSYGWIECVGIADRSAYDLRAHSDKSGTPLVAEEKFAEPKEVEKLVITPVKKELGLAFKGNQKNVVESLEAMNEEEAMEMKATLESKGEVEFYVCTLKKSVNIKKNMVSISKEKKKEHQRVFTPSVIEPSFGIGRIIYCLYEHCFSTRPSKAGDEQLNLFRFPPLVAPIKCTVFPLVQNQQFEEVAKVISKELASVGISHKIDITGTSIGKRYARTDELGVPFAITVDSDTSVTIRERDSKDQVRVTLKEAASVVSSVSEGKMTWQDVWATFPHHSSAAADE
Consider B3, for which the binding result is listed as “binds”.

B4: Cytidine/deoxycytidylate deaminase (AT5G28050) (protein, UniProt Q94BU8 1-185)
chain: MEEAKVEAKDGTISVASAFSGHQQAVHDSDHKFLTQAVEEAYKGVDCGDGGPFGAVIVHNNEVVASCHNMVLKYTDPTAHAEVTAIREACKKLNKIELSECEIYASCEPCPMCFGAIHLSRLKRLVYGAKAEAAIAIGFDDFIADALRGTGVYQKSSLEIKKADGNGAAIAEQVFQNTKEKFRLY
Consider B4, for which the binding entry is reported as “binds”.

B5: REI1‐LIKE (REIL) (protein, UniProt Q8H1G5 1-404)
chain: MPGLTCNACNMEFKDEEERNLHYKSDWHRYNLKRKVAGVPGVTEALFEARQSALAQEKNKSNEAPMLYTCAICAKGYRSSKAHEQHLQSRSHVLRVSQGTSINGEEDIAIIRQLPRRVQHRGSIDDDSEDEWVEVDSDEELAAEEASDSLSKLNVNESGSAEDMDDDGDADKYELDPTCCLMCDKKHKTLESCMLHMHKHHGFFIPDIEYLKDPEGLLTYLGLKVKRDFMCLYCNELCRPFSSLEAVRKHMEAKSHCKLHYGDGDDEEDAELEEFYDYSSSYVDEAGKQIVVSGETDNTVELVGGSELLITEKSENTTTSKTLGSREFMRYYRQKPRPTSQDSNQIIASLSSRYKSLGLKTVPSKEETLRMKVRKEMSKRGETMRTKIGVKSNVIRNLPNNVPY
For B5, the binding result is “binds”.

B6: TCP‐1/cpn60 chaperonin (AT1G24510) (protein, UniProt O04450 1-535)
chain: MALAFDEFGRPFIILREQDQKTRLRGIDAQKANIAAGKAVARILRSSLGPKGMDKMLQGPDGDITITNDGATILEQMDVDNQIAKLMVELSRSQDYEIGDGTTGVVVMAGALLEQAERQLDRGIHPIRIAEGYEMASRVAVEHLERIAQKFEFDVNNYEPLVQTCMTTLSSKIVNRCKRSLAEIAVKAVLAVADLERRDVNLDLIKVEGKVGGKLEDTELIYGILIDKDMSHPQMPKQIEDAHIAILTCPFEPPKPKTKHKVDIDTVEKFETLRKQEQQYFDEMVQKCKDVGATLVICQWGFDDEANHLLMHRNLPAVRWVGGVELELIAIATGGRIVPRFQELTPEKLGKAGVVREKSFGTTKERMLYIEHCANSKAVTVFIRGGNKMMIEETKRSIHDALCVARNLIRNKSIVYGGGAAEIACSLAVDAAADKYPGVEQYAIRAFAEALDSVPMALAENSGLQPIETLSAVKSQQIKENIPFYGIDCNDVGTNDMREQNVFETLIGKQQQILLATQVVKMILKIDDVISNSEY
Consider B6, for which the binding entry was “binds”.

B7: CYSTATIN 1 (CYS1) (protein, UniProt Q945Q1 1-101)
chain: MADQQAGTIVGGVRDIDANANDLQVESLARFAVDEHNKNENLTLEYKRLLGAKTQVVAGTMHHLTVEVADGETNKVYEAKVLEKAWENLKQLESFNHLHDV
As for B7, the binding entry is given as “binds”.

B8: TCP‐1/cpn60 chaperonin (AT3G18190) (protein, UniProt Q9LV21 1-536)
chain: MAAVAAPMASKPRGSKAESFVDNKRREDIRFANINSARAVSDAVRTSLGPKGMDKMISTANGEVIITNDGATILNKMEVLQPAAKMLVELSKSQDSAAGDGTTTVVVIAGALLKECQSLLTNGIHPTVISDSLHKACGKAIDILTAMAVPVELTDRDSLVKSASTSLNSKVVSQYSTLLAPLAVDAVLSVIDPEKPEIVDLRDIKIVKKLGGTVDDTHTVKGLVFDKKVSRAAGGPTRVENAKIAVIQFQISPPKTDIEQSIVVSDYTQMDRILKEERNYILGMIKKIKATGCNVLLIQKSILRDAVTDLSLHYLAKAKIMVIKDVERDEIEFVTKTLNCLPIANIEHFRAEKLGHADLVEEASLGDGKILKITGIKDMGRTTSVLVRGSNQLVLDEAERSLHDALCVVRCLVSKRFLIAGGGAPEIELSRQLGAWAKVLHGMEGYCVKSFAEALEVIPYTLAENAGLNPIAIVTELRNKHAQGEINAGINVRKGQITNILEENVVQPLLVSTSAITLATECVRMILKIDDIVTVR
B8: the binding entry is “binds”.

B9: TUF (protein, UniProt Q39258 1-230)
chain: MNDGDVSRQIQQMVRFIRQEAEEKANEISVSAEEEFNIEKLQLVEAEKKKIRQDYEKKEKQADVRKKIDYSMQLNASRIKVLQAQDDIVNAMKDQAAKDLLNVSRDEYAYKQLLKDLIVQCLLRLKEPSVLLRCREEDLGLVEAVLDDAKEEYAGKAKVHAPEVAVDTKIFLPPPPKSNDPHGLHCSGGVVLASRDGKIVCENTLDARLDVAFRMKLPVIRKSLFGQVTA
For the molecule B9, the binding entry was “binds”.

B10: RPT1A (protein, UniProt Q9SSB5 1-426)
chain: MVRDIEDEIRDEKNPRPLDEDDIALLKTYGLGPYSAPIKKVEKEIKDLAKKINDLCGIKESDTGLAPPSQWDLVSDKQMMQEEQPLQVARCTKIISPNTEDAKYVINVKQIAKFVVGLGDKVSPTDIEEGMRVGVDRNKYQIQIPLPPKIDPSVTMMTVEEKPDVTYNDVGGCKEQIEKMREVVELPMLHPEKFVKLGIDPPKGVLCYGPPGTGKTLLARAVANRTDACFIRVIGSELVQKYVGEGARMVRELFQMARSKKACIVFFDEVDAIGGARFDDGVGGDNEVQRTMLEIVNQLDGFDARGNIKVLMATNRPDTLDPALLRPGRLDRKVEFGLPDLESRTQIFKIHTRTMNCERDIRFELLARLCPNSTGADIRSVCTEAGMYAIRARRKTVTEKDFLDAVNKVIKGYQKFSATPKYMVYN
As for B10, the binding result is reported as “binds”.

B11: ASE1 (protein, UniProt Q9SI61 59-566)
chain: SSYFSSPSPSEDNSHTPFDYHNDEDDEKPREECGVVGIYGDPEASRLCYLALHALQHRGQEGAGIVTVSPEKVLQTITGVGLVSEVFNESKLDQLPGEFAIGHVRYSTAGASMLKNVQPFVAGYRFGSIGVAHNGNLVNYKTLRAMLEENGSIFNTSSDTEVVLHLIAISKARPFFMRIIDACEKLQGAYSMVFVTEDKLVAVRDPYGFRPLVMGRRSNGAVVFASETCALDLIEATYEREVYPGEVLVVDKDGVKSQCLMPKFEPKQCIFEHIYFSLPNSIVFGRSVYESRHVFGEILATESPVECDVVIAVPDSGVVAALGYAAKSGVPFQQGLIRSHYVGRTFIEPSQKIRDFGVKLKLSPVRGVLEGKRVVVVDDSIVRGTTSSKIVRLLREAGAKEVHMRIASPPIVASCYYGVDTPSSEELISNRLSVEEINEFIGSDSLAFLSFDTLKKHLGKDSKSFCYACFTGDYPVKPTEVKVKRGGGDFIDDGLVGSFENIEAGWVR
Regarding B11, the binding entry is on record as “binds”.

B12: Transcriptional coactivator (AT5G51110) (protein, UniProt Q9LU63 51-220)
chain: SNLAQDFLGDFGARDPYPEEIASQFGDKVLGCQSTEHKILIPNASVLSLSQLQCSPVSSSQPPLSGDDARTLLHKVLGWSIVDNEAGGLKIRCMWKVRDFGCGVELINRIHKVAEASGHYPSLHLESPTQVRAELFTSSIGGLSMNDFIMAAKIDDIKTSDLSPRKRAWA
With B12, the binding result is “binds”.

B13: ALFIN‐LIKE 7 (AL7) (protein, UniProt Q8LA16 1-252)
chain: MEGIQHPIPRTVEEVFSDFRGRRAGLIKALSTDVQKFYHQCDPEKENLCLYGLPNETWEVNLPVEEVPPELPEPALGINFARDGMQEKDWISLVAVHSDSWLISVAFYFGARFGFGKNERKRLFQMINDLPTIFEVVTGNAKQSKDQSANHNSSRSKSSGGKPRHSESHTKASKMSPPPRKEDESGDEDEDDEQGAVCGACGDNYGGDEFWICCDACEKWFHGKCVKITPAKAEHIKHYKCPSCTTSKKMKA
On to B13, for which the binding result is “binds”.

The values above are taken from paper PMC6373471.
